According to patent US8772266B2, “Fungicide pyrazole carboxamides derivates” (Bayer Cropscience AG, priority 2009, dated 2014):
Some entries share one result that the patent states for a list of compounds.

Key:
Venturia inaequalis = assay: In vivo preventive test on Venturia inaequalis (apple scab); conditions: 10 ppm of active ingredient, evaluated 10 days after inoculation
Botrytis cinerea = assay: In vivo preventive test on Botrytis cinerea (beans); conditions: 100 ppm of active ingredient, evaluated 2 days after inoculation
[1] = system: Blumeria graminis f.sp. tritici; assay: In vivo curative test on Blumeria graminis (wheat); conditions: 250 ppm of active ingredient, evaluated 7 days after inoculation
Leptosphaeria nodorum = assay: In vivo preventive test on Leptosphaeria nodorum (wheat); conditions: 500 ppm of active ingredient, evaluated 7-9 days after inoculation
Puccinia recondita = assay: In vivo preventive test on Puccinia recondita (wheat); conditions: 500 ppm of active ingredient, evaluated 7-9 days after inoculation
Sphaerotheca fuliginea = assay: In vivo preventive test on Sphaerotheca fuliginea (cucumber), Example L; conditions: 500 ppm of active ingredient, evaluated 7 days after inoculation
Fusarium proliferatum = assay: Inhibition of Fumonisin FB1 produced by Fusarium proliferatum; format: cell-based; conditions: 50 μM of active ingredient; 5 days; HPLC-MS/MS
Aspergillus parasiticus = format: cell-based; conditions: 50 μM of active ingredient; 7 days; fluorescence
Boophilus microplus = assay: Injection test on Boophilus microplus; format: in vivo; conditions: 20 μg of active ingredient/animal; after 7 days
Puccinia triticina = assay: In vivo curative test on Puccinia triticina (wheat); conditions: 500 ppm of active ingredient, evaluated 8 days after inoculation
Phakopsora pachyrhizi = assay: In vivo preventive test on Phakopsora pachyrhizi (soybean rust); conditions: 50 ppm of active ingredient, evaluated 11 days after inoculation
Procedure: Solvent: 28.5 parts by weight of acetone
Emulsifier: 1.5 parts by weight of polyoxyethylene alkyl phenyl ether
One day after spraying, the plants are inoculated with an aqueous spore suspension of the causal agent of soybean rust (Phakopsora pachyrhizi).
The test is evaluated 11 days after the inoculation.

Alternaria solani = assay: In vivo preventive test on Alternaria solani (tomato); conditions: 500 ppm of active ingredient, evaluated 7 days after inoculation
Pyrenophora teres = assay: In vivo preventive test on Pyrenophora teres (barley); conditions: 500 ppm of active ingredient, evaluated 7-9 days after inoculation

| SMILES | disease control (Venturia inaequalis) | disease control (Botrytis cinerea) | disease control [1] | disease control (Leptosphaeria nodorum) | disease control (Puccinia recondita) | disease control (Sphaerotheca fuliginea) | inhibition of Fumonisin FB1 production (Fusarium proliferatum) | inhibition of aflatoxines production (Aspergillus parasiticus) | mortality in % (infertile eggs) (Boophilus microplus) | disease control (Puccinia triticina) | disease control (Phakopsora pachyrhizi) | disease control (Alternaria solani) | disease control (Pyrenophora teres) |
| --- | --- | --- | --- | --- | --- | --- | --- | --- | --- | --- | --- | --- | --- |
| CC(C)c1ccccc1CN(C(=O)c1c(C(F)F)nn(C)c1F)C1CC1 [Example 6] | at least 70% | at least 90% | at least 80% | at least 70% | at least 70% | at least 70% | > 80% | > 80% | ≥ 80% | at least 95% | – | – | – |
| Cn1nc(C(F)F)c(C(=O)N(Cc2c(F)cccc2[Si](C)(C)C)C2CC2)c1F [Example 11] | at least 70% | at least 90% | at least 80% | at least 70% | at least 70% | at least 70% | – | > 80% | – | at least 95% | at least 90% | at least 70% | at least 70% |
| Cc1ccc(C(F)(F)F)c(CN(C(=O)c2c(C(F)F)nn(C)c2F)C2CC2)c1 [Example 12] | at least 70% | at least 90% | at least 80% | at least 70% | at least 70% | at least 70% | – | – | ≥ 80% | – | at least 90% | at least 70% | at least 70% |
| CC[Si](C)(C)c1ccccc1CN(C(=O)c1c(C(F)F)nn(C)c1F)C1CC1 [Example 13] | at least 70% | at least 90% | – | at least 70% | at least 70% | at least 70% | – | > 80% | – | at least 95% | at least 90% | at least 70% | at least 70% |
| CC(C)c1ccc(Cl)cc1CN(C(=O)c1c(C(F)F)nn(C)c1F)C1CC1 [Example 29] | at least 70% | at least 90% | at least 80% | at least 70% | at least 70% | at least 70% | > 80% | > 80% | ≥ 80% | at least 95% | – | at least 70% | at least 70% |
| Cn1nc(C(F)F)c(C(=O)N(Cc2ccccc2SC(F)(F)F)C2CC2)c1F [Example 30] | at least 70% | at least 90% | at least 80% | at least 70% | at least 70% | at least 70% | > 80% | > 80% | ≥ 80% | – | – | at least 70% | at least 70% |
